No constants are given. Whether binding was seen depends on the method and setting. In cells and extracts the contact can be indirect. These calls come from enrichment with a bait or labelling near it, and not all partners need be listed.
Target: Neuronal acetylcholine receptor subunit β2 (mouse) (mouse (endogenous in cortex)) (UniProt Q9ERK7)
Assay: affinity purification with mass spectrometry; β2*-nAChRs captured on mAb295-coupled M270 Dynabeads from a Triton X-100 extract of pooled mouse cortex membranes after DSP cross-linking; eight-plex iTRAQ LC-MS/MS; β2+/+, β2+/-, α4+/-β2+/- and β2-/- mice given saline or nicotine (4 mg/kg/h, 10 d); proteins found in both biological replicates

Sequences of proteins named here, by UniProt entry; tags and fusion partners are left off. Residues count along the entry.
UniProt Q9ERK7: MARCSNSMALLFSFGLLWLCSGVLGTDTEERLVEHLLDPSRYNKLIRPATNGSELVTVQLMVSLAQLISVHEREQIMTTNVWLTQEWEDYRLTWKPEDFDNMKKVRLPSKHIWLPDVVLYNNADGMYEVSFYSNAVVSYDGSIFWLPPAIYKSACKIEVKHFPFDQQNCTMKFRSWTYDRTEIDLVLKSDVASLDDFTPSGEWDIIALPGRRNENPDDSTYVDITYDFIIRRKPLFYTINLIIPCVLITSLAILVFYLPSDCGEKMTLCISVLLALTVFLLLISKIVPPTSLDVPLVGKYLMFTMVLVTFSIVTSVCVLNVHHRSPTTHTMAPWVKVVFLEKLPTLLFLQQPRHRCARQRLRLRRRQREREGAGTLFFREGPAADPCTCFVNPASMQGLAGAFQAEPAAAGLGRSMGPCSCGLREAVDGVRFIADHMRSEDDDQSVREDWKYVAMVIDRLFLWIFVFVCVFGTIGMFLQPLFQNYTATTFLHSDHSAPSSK
UniProt P15105: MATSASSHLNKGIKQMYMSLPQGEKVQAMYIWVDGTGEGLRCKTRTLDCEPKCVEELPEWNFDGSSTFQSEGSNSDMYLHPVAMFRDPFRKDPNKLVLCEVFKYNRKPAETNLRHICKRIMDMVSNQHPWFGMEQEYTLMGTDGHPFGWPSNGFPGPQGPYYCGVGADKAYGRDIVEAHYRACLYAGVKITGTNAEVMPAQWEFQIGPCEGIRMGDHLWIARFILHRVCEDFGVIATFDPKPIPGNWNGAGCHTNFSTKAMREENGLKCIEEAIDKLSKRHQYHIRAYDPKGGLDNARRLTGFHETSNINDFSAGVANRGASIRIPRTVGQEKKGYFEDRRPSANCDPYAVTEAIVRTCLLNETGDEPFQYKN
UniProt Q9D6J5, residues 29-186: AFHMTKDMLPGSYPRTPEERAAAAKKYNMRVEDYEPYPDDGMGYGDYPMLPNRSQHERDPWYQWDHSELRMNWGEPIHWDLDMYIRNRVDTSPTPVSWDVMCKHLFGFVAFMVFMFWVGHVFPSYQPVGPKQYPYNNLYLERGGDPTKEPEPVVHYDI
UniProt Q9DC70, residues 36-224: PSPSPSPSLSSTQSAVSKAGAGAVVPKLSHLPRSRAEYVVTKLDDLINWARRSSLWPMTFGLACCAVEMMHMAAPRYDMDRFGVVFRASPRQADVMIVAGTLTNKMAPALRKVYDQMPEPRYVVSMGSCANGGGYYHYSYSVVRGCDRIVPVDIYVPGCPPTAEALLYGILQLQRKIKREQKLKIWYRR
UniProt O70174, residues 31-629: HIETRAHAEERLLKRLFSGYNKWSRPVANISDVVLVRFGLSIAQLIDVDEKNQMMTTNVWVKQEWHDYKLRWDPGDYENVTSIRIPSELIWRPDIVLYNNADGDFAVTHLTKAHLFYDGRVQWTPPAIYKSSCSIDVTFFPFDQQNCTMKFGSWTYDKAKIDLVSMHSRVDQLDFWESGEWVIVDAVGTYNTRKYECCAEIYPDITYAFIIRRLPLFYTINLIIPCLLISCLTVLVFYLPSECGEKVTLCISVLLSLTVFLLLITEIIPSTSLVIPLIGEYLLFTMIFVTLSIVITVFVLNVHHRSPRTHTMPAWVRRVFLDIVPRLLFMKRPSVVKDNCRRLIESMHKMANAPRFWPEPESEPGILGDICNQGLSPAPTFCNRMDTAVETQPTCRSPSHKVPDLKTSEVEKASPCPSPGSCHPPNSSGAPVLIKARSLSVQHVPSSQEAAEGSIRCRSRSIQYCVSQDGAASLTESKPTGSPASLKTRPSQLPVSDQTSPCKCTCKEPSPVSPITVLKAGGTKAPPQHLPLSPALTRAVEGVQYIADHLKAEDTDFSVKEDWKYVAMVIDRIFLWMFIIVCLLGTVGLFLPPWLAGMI
UniProt Q9DC69, residues 36-377: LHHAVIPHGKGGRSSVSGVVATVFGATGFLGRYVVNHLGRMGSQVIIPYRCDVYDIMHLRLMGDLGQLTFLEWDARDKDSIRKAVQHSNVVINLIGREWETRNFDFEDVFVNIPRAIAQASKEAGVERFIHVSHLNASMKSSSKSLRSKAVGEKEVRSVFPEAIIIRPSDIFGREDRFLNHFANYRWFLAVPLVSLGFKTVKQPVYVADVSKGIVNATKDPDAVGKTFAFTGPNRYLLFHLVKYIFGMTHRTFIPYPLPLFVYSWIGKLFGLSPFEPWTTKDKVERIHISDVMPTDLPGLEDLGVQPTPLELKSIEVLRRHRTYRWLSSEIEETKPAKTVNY
UniProt Q9DCT2, residues 36-263: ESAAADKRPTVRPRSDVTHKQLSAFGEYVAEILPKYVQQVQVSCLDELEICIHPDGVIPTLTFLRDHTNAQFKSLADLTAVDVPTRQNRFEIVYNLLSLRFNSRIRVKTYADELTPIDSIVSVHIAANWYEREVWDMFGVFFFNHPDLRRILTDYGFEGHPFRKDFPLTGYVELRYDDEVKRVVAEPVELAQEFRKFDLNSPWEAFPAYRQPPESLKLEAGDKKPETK
UniProt Q9Z1G4: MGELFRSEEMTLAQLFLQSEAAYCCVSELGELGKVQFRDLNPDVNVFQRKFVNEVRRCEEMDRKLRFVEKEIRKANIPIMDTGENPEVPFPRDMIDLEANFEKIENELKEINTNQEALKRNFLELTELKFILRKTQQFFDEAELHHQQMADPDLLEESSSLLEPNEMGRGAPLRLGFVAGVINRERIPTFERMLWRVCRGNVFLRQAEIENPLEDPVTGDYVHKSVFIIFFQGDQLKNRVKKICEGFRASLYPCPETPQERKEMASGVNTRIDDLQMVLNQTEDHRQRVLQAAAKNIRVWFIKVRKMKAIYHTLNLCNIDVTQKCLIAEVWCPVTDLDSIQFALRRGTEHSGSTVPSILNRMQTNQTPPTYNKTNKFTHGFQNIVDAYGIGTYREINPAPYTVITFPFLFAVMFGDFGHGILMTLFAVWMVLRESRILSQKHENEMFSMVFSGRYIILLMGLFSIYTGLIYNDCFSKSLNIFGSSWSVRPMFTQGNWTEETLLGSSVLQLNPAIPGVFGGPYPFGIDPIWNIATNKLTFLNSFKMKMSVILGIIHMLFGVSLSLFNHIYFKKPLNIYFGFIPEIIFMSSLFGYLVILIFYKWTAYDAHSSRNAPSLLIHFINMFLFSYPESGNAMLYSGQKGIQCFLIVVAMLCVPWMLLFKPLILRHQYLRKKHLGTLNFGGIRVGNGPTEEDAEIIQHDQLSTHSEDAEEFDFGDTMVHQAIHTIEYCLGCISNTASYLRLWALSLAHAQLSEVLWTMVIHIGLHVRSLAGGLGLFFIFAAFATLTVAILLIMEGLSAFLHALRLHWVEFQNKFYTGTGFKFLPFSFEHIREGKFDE
UniProt Q6P5H2: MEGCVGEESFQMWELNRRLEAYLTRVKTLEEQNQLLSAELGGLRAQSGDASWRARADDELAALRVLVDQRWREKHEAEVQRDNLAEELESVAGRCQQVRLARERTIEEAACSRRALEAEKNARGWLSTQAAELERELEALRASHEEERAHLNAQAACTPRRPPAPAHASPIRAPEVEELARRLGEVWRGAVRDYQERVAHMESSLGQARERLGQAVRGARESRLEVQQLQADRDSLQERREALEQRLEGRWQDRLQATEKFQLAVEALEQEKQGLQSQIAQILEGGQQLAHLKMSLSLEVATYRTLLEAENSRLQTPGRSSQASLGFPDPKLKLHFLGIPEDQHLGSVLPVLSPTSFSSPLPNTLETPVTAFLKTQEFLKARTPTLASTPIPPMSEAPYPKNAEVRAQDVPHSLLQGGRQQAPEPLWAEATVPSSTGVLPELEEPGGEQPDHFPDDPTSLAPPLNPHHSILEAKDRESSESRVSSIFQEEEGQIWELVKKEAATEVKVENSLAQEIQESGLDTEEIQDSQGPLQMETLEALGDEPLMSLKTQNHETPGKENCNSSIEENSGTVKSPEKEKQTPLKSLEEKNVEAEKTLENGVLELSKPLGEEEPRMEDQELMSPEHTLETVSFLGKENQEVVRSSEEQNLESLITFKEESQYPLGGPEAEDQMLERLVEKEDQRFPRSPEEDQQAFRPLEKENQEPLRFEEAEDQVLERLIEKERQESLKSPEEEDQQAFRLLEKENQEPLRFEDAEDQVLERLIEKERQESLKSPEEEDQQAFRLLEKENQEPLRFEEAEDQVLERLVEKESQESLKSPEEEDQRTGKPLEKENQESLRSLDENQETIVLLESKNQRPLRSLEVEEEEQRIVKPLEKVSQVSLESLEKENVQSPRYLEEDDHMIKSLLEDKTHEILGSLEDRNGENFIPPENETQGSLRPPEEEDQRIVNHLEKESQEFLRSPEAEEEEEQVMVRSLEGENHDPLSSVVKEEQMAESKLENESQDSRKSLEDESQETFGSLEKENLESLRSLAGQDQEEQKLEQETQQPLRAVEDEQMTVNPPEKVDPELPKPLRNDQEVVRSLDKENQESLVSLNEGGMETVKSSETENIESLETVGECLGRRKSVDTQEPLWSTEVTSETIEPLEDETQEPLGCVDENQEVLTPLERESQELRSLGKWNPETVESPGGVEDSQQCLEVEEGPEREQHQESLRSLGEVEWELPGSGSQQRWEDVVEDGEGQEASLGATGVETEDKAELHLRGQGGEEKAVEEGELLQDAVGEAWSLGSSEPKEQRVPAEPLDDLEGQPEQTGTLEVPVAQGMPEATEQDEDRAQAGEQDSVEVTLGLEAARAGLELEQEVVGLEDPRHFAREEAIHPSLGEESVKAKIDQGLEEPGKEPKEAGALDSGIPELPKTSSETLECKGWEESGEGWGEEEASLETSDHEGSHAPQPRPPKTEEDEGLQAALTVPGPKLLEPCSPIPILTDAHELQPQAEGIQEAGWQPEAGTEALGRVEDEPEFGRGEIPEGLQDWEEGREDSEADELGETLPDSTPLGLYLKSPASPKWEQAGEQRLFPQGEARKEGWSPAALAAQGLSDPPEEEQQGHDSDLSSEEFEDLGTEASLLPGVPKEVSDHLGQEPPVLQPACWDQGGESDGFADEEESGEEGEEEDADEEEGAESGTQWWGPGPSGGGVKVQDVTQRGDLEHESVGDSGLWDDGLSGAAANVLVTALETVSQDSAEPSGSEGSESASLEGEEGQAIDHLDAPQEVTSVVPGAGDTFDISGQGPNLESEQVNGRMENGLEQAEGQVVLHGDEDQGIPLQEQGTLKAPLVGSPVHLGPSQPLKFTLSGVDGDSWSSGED
UniProt P61264: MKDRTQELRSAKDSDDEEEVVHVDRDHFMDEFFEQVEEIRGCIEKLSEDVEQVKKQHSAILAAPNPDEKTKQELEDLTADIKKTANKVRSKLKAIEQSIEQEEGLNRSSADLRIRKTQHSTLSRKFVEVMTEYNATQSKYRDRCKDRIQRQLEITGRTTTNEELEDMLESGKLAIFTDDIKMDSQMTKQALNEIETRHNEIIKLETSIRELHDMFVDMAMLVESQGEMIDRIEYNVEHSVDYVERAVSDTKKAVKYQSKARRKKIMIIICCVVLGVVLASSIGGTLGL

Molecule	binding
Glutamine synthetase (mouse) (from UniProt P15105 1-373)	binds
NADH dehydrogenase [ubiquinone] 1 β subcomplex subunit 8, mito (mouse) (from UniProt Q9D6J5 29-186)	binds
NADH dehydrogenase [ubiquinone] iron-sulfur protein 7, mito (mouse) (from UniProt Q9DC70 36-224)	binds
NADH dehydrogenase [ubiquinone] iron-sulfur protein 8, mito (mouse) (from UniProt Q8K3J1 35-212)	binds
Tubulin β5 chain (mouse) (from UniProt P99024 1-444)	binds
Neuronal acetylcholine receptor subunit α4 (mouse) (from UniProt O70174 31-629)	binds
Spectrin α chain, nonerythrocytic 1 (mouse) (from UniProt P16546 1-2472)	binds
Synaptotagmin-1 (mouse) (from UniProt P46096 1-421)	binds
NADH dehydrogenase [ubiquinone] 1 α subcomplex subunit 9, mito (mouse) (from UniProt Q9DC69 36-377)	binds
NADH dehydrogenase [ubiquinone] iron-sulfur protein 3, mito (mouse) (from UniProt Q9DCT2 36-263)	binds
V-type proton ATPase 116 kDa subunit a isoform 1 (mouse) (from UniProt Q9Z1G4 1-839)	binds
Nestin (mouse) (from UniProt Q6P5H2 1-1864)	binds
Syntaxin-1B (mouse) (from UniProt P61264 1-288)	binds
Synaptosomal-associated protein 25 (mouse) (from UniProt P60879 1-206)	binds
Tropomyosin α3 chain (mouse) (from UniProt P21107 1-285)	binds
ATP synthase subunit α, mito (mouse) (from UniProt Q03265 44-553)	binds
14-3-3 protein theta (mouse) (protein, UniProt P68254 1-245) MEKTELIQKAKLAEQAERYDDMATCMKAVTEQGAELSNEERNLLSVAYKNVVGGRRSAWRVISSIEQKTDTSDKKLQLIKDYREKVESELRSICTTVLELLDKYLIANATNPESKVFYLKMKGDYFRYLAEVACGDDRKQTIENSQGAYQEAFDISKKEMQPTHPIRLGLALNFSVFYYEILNNPELACTLAKTAFDEAIAELDTLNEDSYKDSTLIMQLLRDNLTLWTSDSAGEECDAAEGAEN	binds
ADP/ATP translocase 1 (mouse) (protein, UniProt P48962 1-298) MGDQALSFLKDFLAGGIAAAVSKTAVAPIERVKLLLQVQHASKQISAEKQYKGIIDCVVRIPKEQGFLSFWRGNLANVIRYFPTQALNFAFKDKYKQIFLGGVDRHKQFWRYFAGNLASGGAAGATSLCFVYPLDFARTRLAADVGKGSSQREFNGLGDCLTKIFKSDGLKGLYQGFSVSVQGIIIYRAAYFGVYDTAKGMLPDPKNVHIIVSWMIAQSVTAVAGLVSYPFDTVRRRMMMQSGRKGADIMYTGTLDCWRKIAKDEGANAFFKGAWSNVLRGMGGAFVLVLYDEIKKYV	binds
ADP/ATP translocase 2 (mouse) (protein, UniProt P51881 1-298) MTDAAVSFAKDFLAGGVAAAISKTAVAPIERVKLLLQVQHASKQITADKQYKGIIDCVVRIPKEQGVLSFWRGNLANVIRYFPTQALNFAFKDKYKQIFLGGVDKRTQFWRYFAGNLASGGAAGATSLCFVYPLDFARTRLAADVGKAGAEREFKGLGDCLVKIYKSDGIKGLYQGFNVSVQGIIIYRAAYFGIYDTAKGMLPDPKNTHIFISWMIAQSVTAVAGLTSYPFDTVRRRMMMQSGRKGTDIMYTGTLDCWRKIARDEGSKAFFKGAWSNVLRGMGGAFVLVLYDEIKKYT	binds
α-Internexin (mouse) (protein, UniProt P46660 1-501) MSFGSEHYLCSASSYRKVFGDSSRLSARLSGPGGSGSFRSQSLSRSNVASTAACSSASSLGLGLAYRRLPASDGLDLSQAAARTNEYKIIRTNEKEQLQGLNDRFAVFIEKVHQLETQNRALEAELAALRQRHAEPSRVGELFQRELRELRAQLEEASSARAQALLERDGLAEEVQRLRARCEEESRGREGAERALKAQQRDVDGATLARLDLEKKVESLLDELAFVRQVHDEEVAELLATLQASSQAAAEVDVAVAKPDLTSALREIRAQYESLAAKNLQSAEEWYKSKFANLNEQAARSTEAIRASREEIHEYRRQLQARTIEIEGLRGANESLERQILELEERHSAEVAGYQDSIGQLESDLRNTKSEMARHLREYQDLLNVKMALDIEIAAYRKLLEGEETRFSTGGLSISGLNPLPNPSYLLPPRILSSTASKVSSAGLSLKKEEEEEEEEASKEVSKKTSKVGEGFEETLGEAVISTKKTGKSATEESTSSSQKM	binds
ATP synthase subunit b, mito (mouse) (protein, UniProt Q9CQQ7 43-256) PLPPLPEYGGKVRLGLIPEEFFQFLYPKTGVTGPYVLGTGLSLYFLSKEIYVITPETFSTISVVGLIVYVIKKYGASFGEFIDKLNEEKIAQLEEVKQSSMKQIQDAIDMEKAQQALVQKRHYLFDVQRNNIALALEVTYRERLHKAYKEVKNRLDYHISVQNMMRRKEEEHMIDWVEKHVVKSISVQQEKETIAKCIEDLKLLAKKAQAQPIM	binds
ATP synthase subunit e, mito (mouse) (protein, UniProt Q06185 1-71) MVPPVQVSPLIKFGRYSALIIGMAYGAKRYSYLKPRAEEERRIAAEEKKRLDELKRIERELAEAQDDSILK	binds
ATP synthase subunit delta, mito (mouse) (protein, UniProt Q9D3D9 23-168) AEAAAAPAPAAGPGQMSFTFASPTQVFFDSANVKQVDVPTLTGAFGILASHVPTLQVLRPGLVVVHTEDGTTTKYFVSSGSVTVNADSSVQLLAEEAVTLDMLDLGAARANLEKAQSELSGAADEAARAEIQIRIEANEALVKALE	binds
Complement C1q subcomponent subunit A (mouse) (protein, UniProt P98086 23-245) EDVCRAPNGKDGAPGNPGRPGRPGLKGERGEPGAAGIRTGIRGFKGDPGESGPPGKPGNVGLPGPSGPLGDSGPQGLKGVKGNPGNIRDQPRPAFSAIRQNPMTLGNVVIFDKVLTNQESPYQNHTGRFICAVPGFYYFNFQVISKWDLCLFIKSSSGGQPRDSLSFSNTNNKGLFQVLAGGTVLQLRRGDEVWIEKDPAKGRIYQGTEADSIFSGFLIFPSA	binds
2',3'-cyclic-nucleotide 3'-phosphodiesterase (mouse) (protein, UniProt P16330 1-420) MNTSFTRKSHTFLPKLFFRKMSSSGAKEKPELQFPFLQDEDTVATLHECKTLFILRGLPGSGKSTLARLILEKYHDGTKMVSADAYKIIPGSRADFSEAYKRLDEDLAGYCRRDIRVLVLDDTNHERERLDQLFEMADQYQYQVVLVEPKTAWRLDCAQLKEKNQWQLSADDLKKLKPGLEKDFLPLYFGWFLTKKSSETLRKAGQVFLEELGNHKAFKKELRHFISGDEPKEKLELVSYFGKRPPGVLHCTTKFCDYGKAAGAEEYAQQEVVKRSYGKAFKLSISALFVTPKTAGAQVVLTDQELQLWPSDLDKPSASEGLPPGSRAHVTLGCAADVQPVQTGLDLLDILQQVKGGSQGEAVGELPRGKLYSLGKGRWMLSLTKKMEVKAIFTGYYGKGKPVPIHGSRKGGAMQICTII	binds

Reference: article PMC4985585
